Results are given in words; binding and its absence hold for the method and conditions named. Binding can be weak; no strength is given.
Columns and labels:
[1] = target: T1, Pol2 catalytic domain (residues 1-1192), exonuclease-deficient (D290A/E292A) (yeast (S. cerevisiae)) (UniProt P21951); experiment: cryo-EM structure
T1 sequence: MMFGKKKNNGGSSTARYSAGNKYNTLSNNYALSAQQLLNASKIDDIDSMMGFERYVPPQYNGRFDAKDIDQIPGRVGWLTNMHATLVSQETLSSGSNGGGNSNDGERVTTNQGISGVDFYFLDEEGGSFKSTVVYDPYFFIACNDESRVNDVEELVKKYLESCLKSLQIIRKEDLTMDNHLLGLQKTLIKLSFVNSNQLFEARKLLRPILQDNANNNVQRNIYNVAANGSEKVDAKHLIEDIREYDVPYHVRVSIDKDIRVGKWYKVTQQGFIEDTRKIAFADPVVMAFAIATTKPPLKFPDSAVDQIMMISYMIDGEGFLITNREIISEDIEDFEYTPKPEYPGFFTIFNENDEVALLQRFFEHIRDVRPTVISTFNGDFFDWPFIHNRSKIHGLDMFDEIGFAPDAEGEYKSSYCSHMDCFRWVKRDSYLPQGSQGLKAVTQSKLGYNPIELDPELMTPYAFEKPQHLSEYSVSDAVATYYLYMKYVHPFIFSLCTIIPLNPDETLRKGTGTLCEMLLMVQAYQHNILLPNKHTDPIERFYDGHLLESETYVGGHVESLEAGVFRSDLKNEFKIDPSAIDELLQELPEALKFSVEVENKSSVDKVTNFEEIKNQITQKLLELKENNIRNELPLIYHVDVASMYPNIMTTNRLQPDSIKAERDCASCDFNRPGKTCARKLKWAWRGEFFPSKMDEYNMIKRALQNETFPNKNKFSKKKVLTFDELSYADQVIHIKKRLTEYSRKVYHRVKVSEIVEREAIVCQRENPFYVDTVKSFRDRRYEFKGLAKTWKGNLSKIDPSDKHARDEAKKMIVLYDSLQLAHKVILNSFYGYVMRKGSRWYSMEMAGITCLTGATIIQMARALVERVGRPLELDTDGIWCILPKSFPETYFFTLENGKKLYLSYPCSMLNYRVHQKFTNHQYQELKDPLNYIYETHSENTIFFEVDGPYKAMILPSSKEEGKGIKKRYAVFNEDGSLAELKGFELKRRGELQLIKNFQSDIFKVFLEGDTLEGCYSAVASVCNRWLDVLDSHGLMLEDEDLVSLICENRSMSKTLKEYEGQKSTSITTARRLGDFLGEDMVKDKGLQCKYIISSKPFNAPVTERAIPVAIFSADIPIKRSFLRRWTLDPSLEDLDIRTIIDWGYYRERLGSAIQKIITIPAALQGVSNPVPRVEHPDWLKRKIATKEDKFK

[2] = target: T1, Pol2 catalytic domain (residues 1-1192), exonuclease-deficient (D290A/E292A) (yeast (S. cerevisiae)); experiment: native gel or EMSA

Substance	binding [1]	binding [2]
Ctf18 C-terminus (the Ctf18 chain of Ctf18-1-8) (yeast (S. cerevisiae)) (domain or fragment)	binds	
Ctf18-1-8 with Ctf18 V730R/R731A/K732A (yeast (S. cerevisiae)) (complex)		binds
Ctf18-1-8 with Dcc1 R367A/R376A/R380A (yeast (S. cerevisiae)) (complex)		binds
Dcc1 (the Dcc1 chain of Ctf18-1-8) (yeast (S. cerevisiae))	binds	
